{
  "source": "PubChem BioAssay AID540303",
  "about": "(National Center for Advancing Translational Sciences (NCATS), 2011)",
  "note": "The whole screen tested about 330,000 compounds, of which about 1,000 (0.3%) were called active. Inconclusive results, whose numbers are uncertain, are shown with a selection of clear calls. The call rests on the fitted dose curve; in most records, active means well fitted inhibition curve with a large enough effect; inconclusive means small, poorly fitted or top-dose-only effect; inactive means no such curve, though single readings can be large or run the other way; tested in mouse RAW 264.7 cells. Where the call is inconclusive, the potency comes from a doubtful curve fit. On the % scale 0 is the no-effect control and ±100 the full control effect; potency means the concentration at half of the fitted maximal effect.",
  "data": [
    {"assay": "qHTS for Inhibitors of Cell Surface uPA Generation; further: nearly all actives have a fitted effect of over 55% in size", "settings": "cell surface uPA generation assay; series mostly up to 38.3 µM; activity change, negative = inhibition: at the top concentration", "summary_of_the_method": "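Validation set in qHTS format. RAW 264.7 cells were pre-plated overnight and then exposed to compounds (up to 38.3 uM final) for 24 h at 37 C in 5% CO2, followed by a luminescent ATP-Lite measurement.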", "values": [
      {"smiles": "Cc1cc(C)c(NC(=O)CN(C)C(=O)c2ccc(OCc3ccccc3)cc2)c(C)c1", "Potency": "inconclusive: 2.82 µM [inhibitor, full curve, poor fit]"},
      {"smiles": "c1cn2c(NC3CCCC3)c(-c3ccc(N4CCOCC4)cc3)nc2cn1", "Potency": "active: 5.62 µM"},
      {"smiles": "Cc1ccc(NC(=O)CN(C)C(=O)Cn2ncc(Cl)c(Cl)c2=O)cc1", "Potency": "inconclusive: 11.2 µM [inhibitor, partial curve, poor fit]"},
      {"smiles": "CC[C@H](CO)Oc1cc(NCc2ccc(Cl)c(Cl)c2)c2ncn(C(C)C)c2c1", "Potency": "inconclusive: 10 µM [inhibitor, partial curve, poor fit]"},
      {"smiles": "COc1cc(C(=O)OCC(=O)NCc2ccc(F)cc2)cc(NC(=O)c2cccs2)c1OC", "Potency": "inconclusive: 4.47 µM [inhibitor, partial curve, poor fit]"},
      {"smiles": "Cc1ccc(/C=N/NC(=O)c2cc(C)oc2C)cc1", "activity change, negative = inhibition": "inactive: -18.4%"},
      {"smiles": "CCOC(=O)c1ccc(N=c2sc(C(=O)OC)cc(=O)n2-c2ccc(C(=O)OCC)cc2)cc1", "Potency": "inconclusive: 7.94 µM [inhibitor, partial curve, poor fit]"},
      {"smiles": "Cc1ccc(C(=O)Nc2ccsc2C(=O)O)cc1", "Potency": "inconclusive: 2.24 µM [inhibitor, partial curve, poor fit]"},
      {"smiles": "Cc1cccc2c(N)c3c(nc12)N(C)CC3", "Potency": "inconclusive: 1.78 µM [inhibitor, partial curve, poor fit]"},
      {"smiles": "Cc1ccc(OCc2cc(C(=O)N(C)CCc3ccccn3)no2)cn1", "Potency": "inconclusive: 12.6 µM [inhibitor, single point]"},
      {"smiles": "Oc1ccc(NCc2ccc(OCc3ccccc3)cc2)cc1", "Potency": "inconclusive: 5.01 µM [inhibitor, partial curve, poor fit]"},
      {"smiles": "CCCN1Cc2cccc(C(=O)N3CCN(c4cc(Cl)ccc4C)CC3)c2C1=O", "Potency": "inconclusive: 2 µM [inhibitor, partial curve]"},
      {"smiles": "COc1cc(CCCN2C(=S)NC[C@@H]2Cc2ccccc2)cc(OC)c1OC", "activity change, negative = inhibition": "inactive: 7.77%"},
      {"smiles": "CSc1nc(N)nc(SCCS(=O)(=O)c2ccc(Cl)cc2)c1C#N", "Potency": "inconclusive: 10 µM [inhibitor, single point]"},
      {"smiles": "COc1ccc(-n2c(C)cc(/C=C3\\C(=N)N4N=C(CC(=O)N5CCOCC5)SC4=NC3=O)c2C)c(OC)c1", "Potency": "inconclusive: 12.6 µM [inhibitor, single point]"},
      {"smiles": "O=C(c1ccc([N+](=O)[O-])o1)N1CCN(Cc2ccccc2)CC1", "Potency": "inconclusive: 17.8 µM [inhibitor, single point]"},
      {"smiles": "COc1ccc(C(=O)NCc2nnc(SCC(=O)NC3CCCCC3)n2C)cc1", "activity change, negative = inhibition": "inactive: -1.38%"},
      {"smiles": "Fc1ccc(-c2ccc3c(c2)C2CC3CCN2)cc1", "note": "(stereo not given)", "Potency": "inconclusive: 12.6 µM [inhibitor, partial curve, poor fit]"},
      {"smiles": "COC(=O)c1cc(=O)n(CCc2ccccc2F)c(=Nc2ccc(F)c(Cl)c2)s1", "Potency": "inconclusive: 3.98 µM [inhibitor, partial curve]"},
      {"smiles": "CCC(C)C1Nc2ccc(C(=O)NCCc3ccc(OC)c(OC)c3)cc2NC1=O", "note": "(stereo not given)", "Potency": "inconclusive: 8.91 µM [inhibitor, partial curve, poor fit]"},
      {"smiles": "O=C(NC1C/C=C\\C(c2ccccc2)N(c2ccccc2)C(=O)C1)OCC1c2ccccc2-c2ccccc21", "note": "(stereo not given)", "Potency": "inconclusive: 11.2 µM [inhibitor, partial curve, poor fit]"},
      {"smiles": "Cc1cccc(C)c1NC(=O)c1ccc(OCc2c(C)noc2C)cc1", "Potency": "inconclusive: 12.6 µM [inhibitor, single point]"},
      {"smiles": "N#CC1=C(N)Oc2cc(N)ccc2C1c1ccccc1Cl", "note": "(stereo not given)", "Potency": "inconclusive: 10 µM [inhibitor, partial curve, poor fit]"},
      {"smiles": "Cc1ccc(NC(=O)COc2ccc(Cl)cc2Cl)cc1S(=O)(=O)N1CCOCC1", "activity change, negative = inhibition": "inactive: -14.5%"},
      {"smiles": "Cn1nc(C(=O)Nc2cccc(S(=O)(=O)N3CCOCC3)c2)c2ccccc2c1=O", "Potency": "inconclusive: 5.01 µM [inhibitor, full curve, poor fit]"},
      {"smiles": "CCOc1ccc2c(CC)cc(=O)oc2c1OCC", "Potency": "inconclusive: 8.91 µM [inhibitor, partial curve, poor fit]"},
      {"smiles": "Cc1ccc(N2C(=O)c3ccccc3C2C(=O)c2cc(C)ccc2O)cc1", "note": "(stereo not given)", "Potency": "inconclusive: 22.4 µM [inhibitor, single point]"},
      {"smiles": "CCC1Sc2ccc(S(=O)(=O)CCC(=O)NCc3ccco3)cc2NC1=O", "note": "(stereo not given)", "Potency": "inconclusive: 8.91 µM [inhibitor, single point]"},
      {"smiles": "CN(CCc1ccccc1)C(=O)c1ccc(NC(=O)Cc2ccc(NC(=O)C3CCN(C(=O)CCc4ccccc4)CC3)cc2)cc1", "Potency": "inconclusive: 10 µM [inhibitor, partial curve, poor fit]"},
      {"smiles": "COc1ccc(C(C)=O)cc1CSc1nnc(Nc2ccc(C)cc2C)s1", "activity change, negative = inhibition": "inactive: -0.97%"},
      {"smiles": "COc1ccc(-c2ccc(OC(=O)NC3CCS(=O)(=O)C3)cc2)cc1", "note": "(stereo not given)", "Potency": "active: 10 µM"},
      {"smiles": "CN(CC(=O)Nc1ccccc1Sc1ccccc1)C1CCCCC1", "activity change, negative = inhibition": "inactive: 7.65%"},
      {"smiles": "COC(=O)C1=C(C)N(Cc2ccccc2)C(=NCc2ccc(OC)cc2)N[C@H]1c1ccccc1", "Potency": "inconclusive: 5.01 µM [inhibitor, partial curve, poor fit]"},
      {"smiles": "NNC(=S)NC1CCCCCCCCCCC1", "activity change, negative = inhibition": "inactive: 0.808%"},
      {"smiles": "O=C1Nc2cc(C(=O)NCCCN3CCOCC3)ccc2S/C1=C/c1cccc(Cl)c1", "activity change, negative = inhibition": "inactive: 15.4%"},
      {"smiles": "CC(=O)n1cc(N(C(=O)CCl)c2ccc(Cl)cc2)c2ccccc21", "Potency": "inconclusive: 1.12 µM [inhibitor, full curve, poor fit]"},
      {"smiles": "CCc1ccc(-c2nc(SCC(=O)N(CC)C3CCS(=O)(=O)C3)n[nH]2)cc1", "note": "(stereo not given)", "Potency": "inconclusive: 11.2 µM [inhibitor, partial curve, poor fit]"},
      {"smiles": "COC(=O)Cn1c(CN(C)Cc2ccccc2)nc2c1c(=O)n(C)c(=O)n2C", "Potency": "inconclusive: 3.16 µM [inhibitor, partial curve, poor fit]"},
      {"smiles": "C/C(=N\\NC(=O)CN(c1ccccc1)S(C)(=O)=O)c1ccccc1O", "activity change, negative = inhibition": "inactive: -0.755%"},
      {"smiles": "COc1ccccc1CCNC(=O)C1CCN(c2nnc(C)c3c(C)n(-c4ccc(C)cc4)nc23)CC1", "Potency": "inconclusive: 2.82 µM [inhibitor, single point]"}
    ]}
  ]
}
